The record followed here is the supplement of paper PMC10849652.

By UniProt entry, the sequences of proteins in these tests, tags left out. Where a name states a change or a piece, a line headed by the entry shows the natural chain unless it says otherwise.
UniProt Q2M2I8: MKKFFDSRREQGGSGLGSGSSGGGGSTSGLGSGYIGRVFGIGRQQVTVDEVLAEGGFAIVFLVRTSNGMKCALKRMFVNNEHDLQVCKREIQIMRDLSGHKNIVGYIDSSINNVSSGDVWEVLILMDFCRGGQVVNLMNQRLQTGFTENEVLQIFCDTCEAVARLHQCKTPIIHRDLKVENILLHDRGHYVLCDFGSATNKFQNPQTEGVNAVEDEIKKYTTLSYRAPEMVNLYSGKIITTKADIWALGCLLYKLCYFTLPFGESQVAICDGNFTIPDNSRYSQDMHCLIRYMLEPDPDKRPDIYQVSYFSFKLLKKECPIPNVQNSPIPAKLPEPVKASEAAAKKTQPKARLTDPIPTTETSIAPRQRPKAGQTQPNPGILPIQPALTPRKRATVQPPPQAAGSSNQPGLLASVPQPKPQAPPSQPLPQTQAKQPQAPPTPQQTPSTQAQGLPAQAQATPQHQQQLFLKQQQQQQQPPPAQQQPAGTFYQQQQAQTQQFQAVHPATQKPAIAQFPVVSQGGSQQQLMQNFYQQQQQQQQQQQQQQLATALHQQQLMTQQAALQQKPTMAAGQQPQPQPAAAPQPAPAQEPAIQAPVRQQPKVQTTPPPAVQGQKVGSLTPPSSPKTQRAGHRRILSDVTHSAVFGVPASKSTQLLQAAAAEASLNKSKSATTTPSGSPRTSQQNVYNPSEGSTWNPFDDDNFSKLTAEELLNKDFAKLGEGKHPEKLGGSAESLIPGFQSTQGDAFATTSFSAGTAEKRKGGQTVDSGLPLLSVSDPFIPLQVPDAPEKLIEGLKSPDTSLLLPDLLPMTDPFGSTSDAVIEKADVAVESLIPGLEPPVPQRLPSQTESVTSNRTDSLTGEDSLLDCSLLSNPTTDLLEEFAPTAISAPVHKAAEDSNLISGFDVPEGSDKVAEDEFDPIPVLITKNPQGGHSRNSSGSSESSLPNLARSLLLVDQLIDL
UniProt Q9UNA0: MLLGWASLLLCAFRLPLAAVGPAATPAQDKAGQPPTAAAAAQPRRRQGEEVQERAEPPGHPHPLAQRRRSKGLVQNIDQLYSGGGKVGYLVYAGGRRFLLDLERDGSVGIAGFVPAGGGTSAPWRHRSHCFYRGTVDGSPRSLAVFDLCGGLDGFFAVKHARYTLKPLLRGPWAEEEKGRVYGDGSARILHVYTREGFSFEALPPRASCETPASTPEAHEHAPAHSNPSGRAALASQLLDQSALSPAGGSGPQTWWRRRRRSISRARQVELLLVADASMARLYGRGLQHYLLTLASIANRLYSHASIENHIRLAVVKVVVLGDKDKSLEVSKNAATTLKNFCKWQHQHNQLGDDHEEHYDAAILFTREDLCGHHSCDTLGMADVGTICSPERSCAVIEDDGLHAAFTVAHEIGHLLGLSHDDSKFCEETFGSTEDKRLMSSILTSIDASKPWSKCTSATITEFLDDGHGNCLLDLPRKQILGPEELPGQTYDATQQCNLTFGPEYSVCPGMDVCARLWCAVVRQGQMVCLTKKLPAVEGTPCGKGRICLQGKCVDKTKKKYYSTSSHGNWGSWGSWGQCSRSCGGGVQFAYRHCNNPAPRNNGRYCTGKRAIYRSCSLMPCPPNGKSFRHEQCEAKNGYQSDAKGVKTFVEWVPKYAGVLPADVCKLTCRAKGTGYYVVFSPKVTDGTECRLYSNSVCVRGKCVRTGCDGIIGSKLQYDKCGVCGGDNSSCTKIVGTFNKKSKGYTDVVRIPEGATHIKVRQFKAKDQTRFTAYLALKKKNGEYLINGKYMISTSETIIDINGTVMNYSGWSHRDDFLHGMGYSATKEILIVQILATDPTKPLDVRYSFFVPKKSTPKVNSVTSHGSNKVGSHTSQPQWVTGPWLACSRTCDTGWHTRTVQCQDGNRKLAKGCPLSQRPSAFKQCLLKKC
UniProt Q7L211: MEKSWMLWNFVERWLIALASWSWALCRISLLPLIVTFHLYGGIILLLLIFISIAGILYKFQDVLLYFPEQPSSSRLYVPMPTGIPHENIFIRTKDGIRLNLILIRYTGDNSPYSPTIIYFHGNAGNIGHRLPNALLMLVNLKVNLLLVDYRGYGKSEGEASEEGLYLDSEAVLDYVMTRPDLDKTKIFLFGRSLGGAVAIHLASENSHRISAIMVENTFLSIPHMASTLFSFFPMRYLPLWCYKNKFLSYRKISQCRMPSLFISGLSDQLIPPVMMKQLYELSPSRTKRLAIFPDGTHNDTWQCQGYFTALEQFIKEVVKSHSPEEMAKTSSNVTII
UniProt P33121: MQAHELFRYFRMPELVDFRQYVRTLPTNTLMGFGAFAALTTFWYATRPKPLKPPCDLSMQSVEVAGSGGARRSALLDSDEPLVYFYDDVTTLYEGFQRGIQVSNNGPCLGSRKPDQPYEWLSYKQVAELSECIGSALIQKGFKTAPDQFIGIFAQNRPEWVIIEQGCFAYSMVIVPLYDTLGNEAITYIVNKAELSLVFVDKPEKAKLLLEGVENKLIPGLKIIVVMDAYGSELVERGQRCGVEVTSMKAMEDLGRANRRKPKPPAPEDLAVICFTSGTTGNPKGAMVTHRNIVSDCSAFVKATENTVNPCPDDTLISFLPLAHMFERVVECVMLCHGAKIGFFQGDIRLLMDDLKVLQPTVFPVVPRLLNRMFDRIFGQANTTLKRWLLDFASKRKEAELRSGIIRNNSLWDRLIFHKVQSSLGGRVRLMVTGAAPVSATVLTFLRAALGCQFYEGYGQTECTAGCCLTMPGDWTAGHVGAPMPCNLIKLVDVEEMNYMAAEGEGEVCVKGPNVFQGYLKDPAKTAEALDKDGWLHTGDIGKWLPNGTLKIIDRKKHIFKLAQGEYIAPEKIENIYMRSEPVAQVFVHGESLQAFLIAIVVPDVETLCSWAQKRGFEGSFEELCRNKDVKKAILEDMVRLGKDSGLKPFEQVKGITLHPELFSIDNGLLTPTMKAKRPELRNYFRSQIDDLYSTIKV
UniProt P24666: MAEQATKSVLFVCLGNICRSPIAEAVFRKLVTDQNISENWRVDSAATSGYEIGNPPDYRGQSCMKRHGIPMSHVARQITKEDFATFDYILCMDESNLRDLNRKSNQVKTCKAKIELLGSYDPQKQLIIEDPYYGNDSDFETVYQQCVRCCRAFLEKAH
UniProt Q53FZ2: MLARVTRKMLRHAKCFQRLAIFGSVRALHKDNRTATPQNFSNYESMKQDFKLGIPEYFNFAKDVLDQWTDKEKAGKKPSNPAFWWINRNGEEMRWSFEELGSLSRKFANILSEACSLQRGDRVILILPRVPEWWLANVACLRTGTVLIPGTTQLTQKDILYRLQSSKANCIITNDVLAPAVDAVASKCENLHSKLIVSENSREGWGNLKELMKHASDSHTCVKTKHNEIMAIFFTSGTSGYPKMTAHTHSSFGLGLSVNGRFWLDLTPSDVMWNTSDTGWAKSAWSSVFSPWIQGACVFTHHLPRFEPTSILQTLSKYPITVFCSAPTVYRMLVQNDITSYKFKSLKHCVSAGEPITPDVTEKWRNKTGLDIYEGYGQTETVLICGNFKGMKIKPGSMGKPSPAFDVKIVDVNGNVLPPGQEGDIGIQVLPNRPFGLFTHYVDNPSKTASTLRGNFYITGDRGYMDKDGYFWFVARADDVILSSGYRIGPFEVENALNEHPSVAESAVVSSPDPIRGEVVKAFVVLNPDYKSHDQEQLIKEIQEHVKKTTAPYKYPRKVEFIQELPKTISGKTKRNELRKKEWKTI
UniProt Q5T3U5: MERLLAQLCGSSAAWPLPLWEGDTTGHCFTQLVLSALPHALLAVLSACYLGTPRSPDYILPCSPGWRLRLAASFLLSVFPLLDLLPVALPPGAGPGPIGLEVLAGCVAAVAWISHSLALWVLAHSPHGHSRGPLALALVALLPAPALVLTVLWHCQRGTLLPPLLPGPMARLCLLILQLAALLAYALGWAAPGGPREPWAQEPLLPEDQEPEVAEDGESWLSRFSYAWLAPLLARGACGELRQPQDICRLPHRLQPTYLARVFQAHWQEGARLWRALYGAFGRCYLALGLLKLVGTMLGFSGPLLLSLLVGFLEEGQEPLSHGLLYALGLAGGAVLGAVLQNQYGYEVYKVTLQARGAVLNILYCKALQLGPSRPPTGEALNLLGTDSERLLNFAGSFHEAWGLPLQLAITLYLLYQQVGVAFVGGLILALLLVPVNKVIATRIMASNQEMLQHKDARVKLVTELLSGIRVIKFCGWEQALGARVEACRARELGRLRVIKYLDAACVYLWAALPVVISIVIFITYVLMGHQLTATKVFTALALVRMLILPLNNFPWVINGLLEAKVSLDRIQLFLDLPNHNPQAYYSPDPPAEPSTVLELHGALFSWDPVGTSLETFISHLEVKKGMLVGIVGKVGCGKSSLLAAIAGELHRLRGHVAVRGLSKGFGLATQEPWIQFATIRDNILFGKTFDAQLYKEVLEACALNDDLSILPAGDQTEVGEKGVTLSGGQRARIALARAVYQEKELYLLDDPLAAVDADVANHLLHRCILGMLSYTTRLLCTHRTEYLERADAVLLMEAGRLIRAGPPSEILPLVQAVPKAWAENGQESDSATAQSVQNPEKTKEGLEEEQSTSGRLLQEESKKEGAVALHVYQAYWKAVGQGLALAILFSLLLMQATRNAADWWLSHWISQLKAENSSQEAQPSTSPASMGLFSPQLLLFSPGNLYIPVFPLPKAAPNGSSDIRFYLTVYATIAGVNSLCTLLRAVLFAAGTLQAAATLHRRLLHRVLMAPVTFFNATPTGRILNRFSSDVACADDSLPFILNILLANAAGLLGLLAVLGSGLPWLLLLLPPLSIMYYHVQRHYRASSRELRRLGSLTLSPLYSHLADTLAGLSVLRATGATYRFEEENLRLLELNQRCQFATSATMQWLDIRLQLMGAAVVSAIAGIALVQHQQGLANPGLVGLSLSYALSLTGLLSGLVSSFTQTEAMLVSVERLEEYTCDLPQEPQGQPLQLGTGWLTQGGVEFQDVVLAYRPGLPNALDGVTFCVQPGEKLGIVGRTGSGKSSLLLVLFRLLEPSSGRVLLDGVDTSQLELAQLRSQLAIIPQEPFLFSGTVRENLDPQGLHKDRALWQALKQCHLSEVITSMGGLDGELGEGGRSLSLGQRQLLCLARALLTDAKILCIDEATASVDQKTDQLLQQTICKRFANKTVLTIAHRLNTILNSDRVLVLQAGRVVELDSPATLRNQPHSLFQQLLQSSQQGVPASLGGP
UniProt Q96M93: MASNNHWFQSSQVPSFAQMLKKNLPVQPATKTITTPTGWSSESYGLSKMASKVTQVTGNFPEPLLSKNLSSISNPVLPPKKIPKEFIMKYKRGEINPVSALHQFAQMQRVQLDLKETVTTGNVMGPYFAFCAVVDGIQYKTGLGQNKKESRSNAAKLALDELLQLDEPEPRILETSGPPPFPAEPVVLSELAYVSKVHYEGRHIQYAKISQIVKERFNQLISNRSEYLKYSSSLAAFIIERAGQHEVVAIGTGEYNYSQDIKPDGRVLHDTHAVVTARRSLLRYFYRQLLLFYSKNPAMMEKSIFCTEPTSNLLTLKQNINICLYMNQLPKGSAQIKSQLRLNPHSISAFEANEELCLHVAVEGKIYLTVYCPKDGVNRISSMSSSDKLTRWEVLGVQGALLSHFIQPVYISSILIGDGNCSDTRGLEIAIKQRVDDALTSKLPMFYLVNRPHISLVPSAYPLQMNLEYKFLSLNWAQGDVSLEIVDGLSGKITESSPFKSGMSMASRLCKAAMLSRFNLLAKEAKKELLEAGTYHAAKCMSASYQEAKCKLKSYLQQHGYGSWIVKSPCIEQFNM
UniProt O95573: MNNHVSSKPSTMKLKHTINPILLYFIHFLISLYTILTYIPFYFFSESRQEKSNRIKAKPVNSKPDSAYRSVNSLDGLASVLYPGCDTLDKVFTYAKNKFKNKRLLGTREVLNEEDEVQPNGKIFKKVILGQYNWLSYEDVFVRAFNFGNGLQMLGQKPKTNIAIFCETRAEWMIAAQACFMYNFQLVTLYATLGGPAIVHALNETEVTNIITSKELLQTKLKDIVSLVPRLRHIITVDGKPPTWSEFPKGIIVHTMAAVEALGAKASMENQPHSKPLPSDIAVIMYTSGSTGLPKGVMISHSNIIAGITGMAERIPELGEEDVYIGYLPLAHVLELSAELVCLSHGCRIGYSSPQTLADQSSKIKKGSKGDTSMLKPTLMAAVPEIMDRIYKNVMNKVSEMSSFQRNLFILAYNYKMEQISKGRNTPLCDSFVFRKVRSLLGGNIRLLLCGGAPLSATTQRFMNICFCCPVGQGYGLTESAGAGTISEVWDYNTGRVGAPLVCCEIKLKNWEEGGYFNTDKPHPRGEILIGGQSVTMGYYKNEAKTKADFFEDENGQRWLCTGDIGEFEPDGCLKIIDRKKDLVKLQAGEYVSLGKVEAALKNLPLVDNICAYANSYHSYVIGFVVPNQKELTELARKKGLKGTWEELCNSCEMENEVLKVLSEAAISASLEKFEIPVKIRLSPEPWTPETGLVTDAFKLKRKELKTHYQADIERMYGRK

Some of the results follow.

Compound in this test: CN1CCN(CCOc2cc(OC3CCOCC3)c3c(Nc4c(Cl)ccc5c4OCO5)ncnc3c2)CC1 [saracatinib]
Put plainly: log2 fold change, soluble protein after heating vs DMSO (PISA); higher = thermal stabilisation; K562 cells, 10 uM, 30 min; active = over 0.2 and 3.5 SD of the protein, either way, in both replicates (recomputed). Put shortly:
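K562 cells at 2×10^6 cells/mL were exposed to 10 μM compound for 30 min, then aliquots were heated for 3 min across 48°C-58°C, pooled, and extracted in PBS containing 0.5% NP-40 at 4°C. The supernatant after 21,000xg for 90 min was taken as soluble protein and measured by TMTpro 16plex LC-MS/MS with channel sums equalised. Thermal stability is reported relative to control samples, with values from duplicates. Fold changes are given on a log2 scale.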
Regarding AAK1 (UniProt Q2M2I8), the log2 fold change was inactive: 0.
As for ADAMTS5 (UniProt Q9UNA0), the figure is inactive: -0.107.
To ABHD13 (UniProt Q7L211) belongs inactive: -0.007.
To ACSL1 (UniProt P33121) belongs inactive: 0.
In the case of ABHD16A (UniProt O95870), the log2 fold change was inactive: 0.01.
To ACP1 isoform 2 (UniProt P24666) belongs inactive: -0.175.
Take AAR2 (UniProt Q9Y312): the log2 fold change was inactive: 0.06.
To ACSM3 (UniProt Q53FZ2) belongs inactive: 0.031; to ABCC10 (UniProt Q5T3U5), inactive: 0.107; to AAMP (UniProt Q13685), inactive: -0.002.
To ACSL4 (UniProt O60488) belongs inactive: -0.128; to ABHD17A isoform 2 (UniProt Q96GS6), inactive: 0.002.
To ACAP2 (UniProt Q15057) belongs inactive: -0.02.
Regarding ACTR1B (UniProt P42025), the log2 fold change was inactive: 0.012.
As for ABHD14A (UniProt Q9BUJ0), the figure is inactive: 0.056; as for ACP1 (UniProt P24666), inactive: -0.031; as for ADAD1 (UniProt Q96M93), inactive: -0.112.
As for ABCC5 (UniProt O15440), the log2 fold change is inactive: 0.107.
To ACSL3 (UniProt O95573) belongs inactive: 0.
As for ADAMTS13 (UniProt Q76LX8), the figure is inactive: 0.261; as for ADAM15 (UniProt Q13444), inactive: -0.241; as for AAGAB (UniProt Q6PD74), inactive: 0.168.
To ACSL6 isoform 1 (UniProt Q9UKU0) belongs inactive: -0.041.
